# Measured values published in the supplement of paper PMC10727501.
# This is one part of the list. Single values are uncertain here, since repeats match poorly.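 Researchers measured free-swimming zebrafish larvae's O-bend response probability to dark flashes (naive: first five; training: remaining flashes of four 60-flash blocks; test: later 60-flash block) and OMR turning toward alternating leftward/rightward LED motion. Six treated larvae were compared to sixty 0.1% DMSO controls, with |SSMD|≥2 marking a hit.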
# Tested on: Danio rerio larvae (5 dpf, TLF)
# Experiment: OMR-Perf (SSMD vs DMSO vehicle); higher = higher than vehicle (e.g. higher dark-flash O-bend response probability, or better optomotor performance)
# Details: 10 µM; pre-incubation: 30-90 min
row,Structure (SMILES),OMR-Perf
1,Cc1cc(C)nc(NS(=O)(=O)c2ccc(NC(=S)NC(=O)COc3ccc(Br)cc3Cl)cc2)n1,-0.587
2,NC(=O)c1cccnc1 [Nicotinamide (Vitamin B3)],-0.0454
3,COc1cc2ncnc(Nc3cccc(Cl)c3)c2cc1OC [AG-1478 (Tyrphostin AG-1478)],-0.667
4,N#CC[C@H](C1CCCC1)n1cc(-c2ncnc3[nH]ccc23)cn1,-0.387
5,CC(C)[C@@H](C)/C=C/[C@@H](C)[C@@H]1CC[C@H]2C3=CC=C4C[C@@H](O)CC[C@]4(C)[C@@H]3CC[C@@]21C [Ergosterol],-0.202
6,CC(C(O)c1ccc(O)cc1)N1CCC(Cc2ccccc2)CC1.CC(C(O)c1ccc(O)cc1)N1CCC(Cc2ccccc2)CC1.O=C(O)[C@H](O)[C@@H](O)C(=O)O (centres undefined) [Ifenprodil Tartrate],-0.549
7,NC(=O)c1ncn([C@@H]2O[C@H](CO)[C@@H](O)[C@@H]2O)c1O [Mizoribine],0.0271
8,O=NN(CCCl)C(=O)NC1CCCCC1 [Lomustine],0.477
9,CC(=O)CCCCn1c(=O)c2c(ncn2C)n(C)c1=O [Pentoxifylline],-0.624
10,OCCn1cc(-c2cnc3nnn(Cc4ccc5ncccc5c4)c3n2)cn1,-0.307
11,COc1ccc(CNc2nc(N3CCC[C@H]3CO)ncc2C(=O)NCc2ncccn2)cc1Cl [Avanafil],0.855
12,CCO[C@H]1OC(=O)C[C@@H]1NC(=O)[C@@H]1CCCN1C(=O)[C@@H](NC(=O)c1ccc(N)c(Cl)c1)C(C)(C)C,0.106
13,CN(C)Cc1c(C(=O)NCCOc2ccc(C(=O)NO)cc2)oc2ccccc12,-0.177
14,O=C([O-])CC(O)(CC(=O)[O-])C(=O)[O-].O=C([O-])CC(O)(CC(=O)[O-])C(=O)[O-].[Bi+3].[K+].[K+].[K+].[K+].[K+] [Bismuth Subcitrate Potassium],-0.26
15,CCn1c(N)c(C(=O)NC)c(=O)c2ccc(C#C[C@@](C)(O)COC)nc21,0.515
16,CC1(C)CNc2cc(NC(=O)c3cccnc3NCc3ccncc3)ccc21.O=P(O)(O)O.O=P(O)(O)O [Motesanib Diphosphate (AMG-706)],-0.26
17,COC(=O)Nc1ccc(-c2nc(N3CCOCC3)c3cnn(C4CCN(C(=O)OC)CC4)c3n2)cc1,-0.127
18,Cl.O=C(O)/C=C/c1ccc(Cn2ccnc2)cc1 [Ozagrel HCl],-0.373
19,Cc1ccc(NC(=O)c2ccc(CN3CC[C@H](N(C)C)C3)c(C(F)(F)F)c2)cc1Nc1ncc(-c2cncnc2)cn1 [Bafetinib (INNO-406)],0.33
20,Cc1cc(O)c2c(c1)C(=O)c1cccc(O)c1C2=O [Chrysophanic Acid],-0.819

row,Structure (SMILES),OMR-Perf
1,NNC(=O)c1ccncc1.Nc1ccc(C(=O)O)c(O)c1 [Pasiniazid],-0.295
2,Cc1cc(C)cc(NC(=O)Cc2ccc(OC(C)(C)C(=O)[O-])cc2)c1.[Na+] [Efaproxiral Sodium],0.19
3,CCCC(C(=O)OCCN(CC)CC)(c1ccccc1)c1ccccc1.Cl [Proadifen HCl],-0.77
4,Cc1cnc(Nc2ccc(N3CCN(C)CC3)cc2)nc1Nc1cccc(S(=O)(=O)NC(C)(C)C)c1,-0.199
5,CN1C2CCCC1CC(NC(=O)c1nn(C)c3ccccc13)C2.Cl (centres undefined) [Granisetron HCl],-0.191
6,NC(=O)c1cnccn1 [Pyrazinamide],-0.193
7,CCC[C@@H]1C[C@@H](C(=O)N[C@@H](C(C)Cl)[C@H]2O[C@@H](SC)[C@H](O)[C@@H](O)[C@H]2O)N(C)C1.Cl (some centres undefined) [Clindamycin HCl],-0.179
8,Cc1ncc([N+](=O)[O-])n1CC(C)O (centres undefined) [Secnidazole],-0.665
9,OC[C@H]1O[C@@H](Oc2cc(O)cc(/C=C/c3ccc(O)cc3)c2)[C@@H](O)[C@@H](O)[C@@H]1O [Polydatin],-0.254
10,O=C(Nc1cccc(Nc2ncc(Br)c(NCCc3cnc[nH]3)n2)c1)N1CCCC1,0.327
11,CC(=O)NS(=O)(=O)c1ccc(NC(=O)c2ccccc2C(=O)O)cc1 [Phthalylsulfacetamide],0.482
12,O=c1c(O)c(-c2cc(O)c(O)c(O)c2)oc2cc(O)cc(O)c12 [Myricetin],-0.289
13,COc1ccc(C2CNC(=O)C2)cc1OC1CCCC1 (centres undefined) [Rolipram],-0.18
14,CNS(=O)(=O)CCc1ccc2[nH]cc(C3CCN(C)CC3)c2c1.Cl [Naratriptan],-0.132
15,CCN1CCN(Cc2ccc(Nc3ncc(F)c(-c4cc(F)c5nc(C)n(C(C)C)c5c4)n3)nc2)CC1.CS(=O)(=O)O,-0.454
16,Cc1c(-c2ccccc2)oc2c(C(=O)OCCN3CCCCC3)cccc2c1=O.Cl [Flavoxate HCl],0.349
17,Cc1ccccc1CN1C2=NCCN2C(=O)C2=C1CCN(Cc1ccccc1)C2,0.872
18,CN[C@H](CC(=O)O)C(=O)O [NMDA (N-Methyl-D-aspartic acid)],-0.475
19,C[C@H]1C[C@H]2[C@@H]3CCC4=CC(=O)C=C[C@]4(C)[C@@H]3C(=O)C[C@]2(C)[C@]1(O)C(=O)CO [Meprednisone],-0.0129

# An excerpt from further up, as a working copy:
row,Structure (SMILES),OMR-Perf
9,OC[C@H]1O[C@@H](Oc2cc(O)cc(/C=C/c3ccc(O)cc3)c2)[C@@H](O)[C@@H](O)[C@@H]1O [Polydatin],-0.254
10,O=C(Nc1cccc(Nc2ncc(Br)c(NCCc3cnc[nH]3)n2)c1)N1CCCC1,0.327
11,CC(=O)NS(=O)(=O)c1ccc(NC(=O)c2ccccc2C(=O)O)cc1 [Phthalylsulfacetamide],0.482
